Paper PMC9039348
Results are given in words; binding and its absence hold for the method and conditions named. In cells and extracts the contact can be indirect. Some results given as binding are weak or reduced against the parent protein; the word gives no strength.

The chains behind the UniProt entries cited, without tags or fusion partners.
UniProt D4A4L4: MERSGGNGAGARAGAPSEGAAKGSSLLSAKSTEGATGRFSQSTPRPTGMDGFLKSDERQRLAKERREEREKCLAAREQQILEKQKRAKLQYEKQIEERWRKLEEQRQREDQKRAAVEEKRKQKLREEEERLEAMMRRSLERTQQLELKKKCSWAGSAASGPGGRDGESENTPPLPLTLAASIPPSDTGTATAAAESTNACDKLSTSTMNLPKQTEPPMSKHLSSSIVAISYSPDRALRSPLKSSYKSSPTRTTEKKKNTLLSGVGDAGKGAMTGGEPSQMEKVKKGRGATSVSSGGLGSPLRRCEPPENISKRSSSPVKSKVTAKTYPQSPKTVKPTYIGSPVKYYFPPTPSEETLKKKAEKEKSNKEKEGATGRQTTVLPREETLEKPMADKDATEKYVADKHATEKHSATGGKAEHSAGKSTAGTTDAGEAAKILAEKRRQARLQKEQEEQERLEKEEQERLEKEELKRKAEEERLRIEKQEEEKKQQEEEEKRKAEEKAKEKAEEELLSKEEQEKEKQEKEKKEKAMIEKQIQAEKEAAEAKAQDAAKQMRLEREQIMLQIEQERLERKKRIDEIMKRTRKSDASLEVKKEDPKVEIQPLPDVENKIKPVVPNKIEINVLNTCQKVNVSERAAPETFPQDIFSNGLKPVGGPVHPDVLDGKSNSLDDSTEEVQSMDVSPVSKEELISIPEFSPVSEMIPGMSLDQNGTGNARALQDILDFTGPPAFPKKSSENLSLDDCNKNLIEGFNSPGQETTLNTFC
UniProt Q14244: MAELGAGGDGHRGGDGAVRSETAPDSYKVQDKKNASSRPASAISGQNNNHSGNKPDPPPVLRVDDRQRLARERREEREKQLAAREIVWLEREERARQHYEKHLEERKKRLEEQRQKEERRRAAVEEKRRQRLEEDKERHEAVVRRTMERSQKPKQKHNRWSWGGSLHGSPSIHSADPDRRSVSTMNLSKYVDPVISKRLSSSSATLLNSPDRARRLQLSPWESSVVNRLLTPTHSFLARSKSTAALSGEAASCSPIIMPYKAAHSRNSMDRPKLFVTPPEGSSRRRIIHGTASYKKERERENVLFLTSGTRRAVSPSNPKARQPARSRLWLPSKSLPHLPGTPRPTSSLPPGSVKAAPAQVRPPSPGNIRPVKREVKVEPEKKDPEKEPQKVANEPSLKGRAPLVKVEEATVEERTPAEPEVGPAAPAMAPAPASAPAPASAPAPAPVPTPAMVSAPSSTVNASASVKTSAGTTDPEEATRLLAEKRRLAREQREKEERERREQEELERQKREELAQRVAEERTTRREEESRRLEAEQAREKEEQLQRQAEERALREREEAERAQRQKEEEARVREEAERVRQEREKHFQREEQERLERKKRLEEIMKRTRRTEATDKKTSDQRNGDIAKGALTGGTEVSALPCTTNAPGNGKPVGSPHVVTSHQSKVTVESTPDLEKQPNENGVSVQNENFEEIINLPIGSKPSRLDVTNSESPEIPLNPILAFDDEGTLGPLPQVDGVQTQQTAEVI
UniProt P33176: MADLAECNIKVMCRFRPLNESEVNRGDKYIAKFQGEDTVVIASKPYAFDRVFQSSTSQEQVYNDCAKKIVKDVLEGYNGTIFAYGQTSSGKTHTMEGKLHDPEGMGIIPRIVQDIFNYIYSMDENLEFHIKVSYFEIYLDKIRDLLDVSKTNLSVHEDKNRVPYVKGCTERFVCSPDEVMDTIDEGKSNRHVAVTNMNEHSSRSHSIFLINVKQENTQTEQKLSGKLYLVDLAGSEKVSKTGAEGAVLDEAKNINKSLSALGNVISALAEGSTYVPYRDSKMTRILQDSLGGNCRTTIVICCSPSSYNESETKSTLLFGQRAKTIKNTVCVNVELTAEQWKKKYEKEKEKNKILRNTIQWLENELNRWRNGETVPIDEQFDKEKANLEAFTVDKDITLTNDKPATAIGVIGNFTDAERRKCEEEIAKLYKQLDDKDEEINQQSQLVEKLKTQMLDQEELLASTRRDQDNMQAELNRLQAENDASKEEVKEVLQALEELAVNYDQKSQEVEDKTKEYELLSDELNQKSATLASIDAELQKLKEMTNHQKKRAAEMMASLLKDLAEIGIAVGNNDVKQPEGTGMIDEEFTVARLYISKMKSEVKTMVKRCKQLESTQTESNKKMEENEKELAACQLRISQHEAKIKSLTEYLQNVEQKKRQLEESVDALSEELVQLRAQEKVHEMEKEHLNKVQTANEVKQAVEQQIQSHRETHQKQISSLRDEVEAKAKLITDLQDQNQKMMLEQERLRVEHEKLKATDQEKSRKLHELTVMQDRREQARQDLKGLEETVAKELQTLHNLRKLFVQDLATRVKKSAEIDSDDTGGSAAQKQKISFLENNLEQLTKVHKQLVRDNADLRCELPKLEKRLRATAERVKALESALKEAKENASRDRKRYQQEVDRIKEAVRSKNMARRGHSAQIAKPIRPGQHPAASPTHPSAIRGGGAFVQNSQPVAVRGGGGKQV

What was measured:
[1] = molecular target: rMap7D2-V5His6 (rat) (UniProt D4A4L4); assay: co-IP; lysates of HeLa cells co-expressing V5His6-tagged Map7 proteins with hKif5b-EGFP, 1×NP40 buffer; immunoprecipitated with anti-V5 antibody, probed with anti-GFP and anti-V5
[2] = molecular target: hMap7-V5His6 (human) (UniProt Q14244); assay: as above

For hKif5b-EGFP (from UniProt P33176 1-963), the binding [1] was “binds” and the binding [2] was “binds”.
